Each structure is given as a SMILES string. Where a name gives a salt, the structure may show the parent alone. The list shows a part of the results. The calls rarely recur for the same compound in another form.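 Kinases were expressed as nanoluciferase fusions in K562 cells and luminescence was read every 4 h between 2 and 18 h as percent of control, DMSO set to 100% and a positive control to 0%. A time point counts as decreased when the signal drops significantly (2 sigma). The hit call is the authors' own, does not follow from the count of time points alone, and its rule is not shown.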

Chains of the proteins cited; added tags and fusions are not shown. Lines headed by an entry give the natural chain unless they say otherwise; changes in a name come on top.
UniProt Q13546: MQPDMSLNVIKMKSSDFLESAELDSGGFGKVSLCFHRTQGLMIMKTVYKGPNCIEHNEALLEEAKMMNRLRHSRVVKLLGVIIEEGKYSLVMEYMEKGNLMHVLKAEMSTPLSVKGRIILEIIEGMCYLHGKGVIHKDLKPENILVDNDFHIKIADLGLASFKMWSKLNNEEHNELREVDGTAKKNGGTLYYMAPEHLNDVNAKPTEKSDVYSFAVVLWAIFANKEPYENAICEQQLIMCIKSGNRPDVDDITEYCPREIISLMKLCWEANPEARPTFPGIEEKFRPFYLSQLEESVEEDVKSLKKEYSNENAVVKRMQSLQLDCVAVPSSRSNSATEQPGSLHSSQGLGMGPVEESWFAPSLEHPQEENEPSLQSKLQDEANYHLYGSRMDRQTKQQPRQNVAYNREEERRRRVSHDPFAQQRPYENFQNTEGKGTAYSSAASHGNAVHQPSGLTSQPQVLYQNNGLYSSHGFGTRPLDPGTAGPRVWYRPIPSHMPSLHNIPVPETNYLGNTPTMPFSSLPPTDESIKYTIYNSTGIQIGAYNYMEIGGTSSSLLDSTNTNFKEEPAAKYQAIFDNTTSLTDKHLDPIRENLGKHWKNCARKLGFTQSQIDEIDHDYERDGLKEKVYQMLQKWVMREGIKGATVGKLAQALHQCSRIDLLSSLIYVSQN

In one experiment the target is RIPK1 (UniProt Q13546). The experiment is described as follows: number of time points (of 5) at which kinase-Nluc abundance scored as decreased, DMSO-normalised (count); higher = more persistent destabilization. Particulars: K562; 2-18 h.
`CNc1nc(Nc2ccc(C(=O)N3CCOCC3)cc2OC)ncc1Cl` (2.5 µM): the “number of time points” value is 0.
As to `CCN(CC)c1ccc2cc(-c3nc4cc(C)ccc4o3)c(=O)oc2c1` (10 µM), the “number of time points” value came to 0.
For the compound `COc1ccccc1C(=O)/C=C/c1ccccc1C(=O)O` (10 µM), the “number of time points” value amounted to 0.
Take `CC(=O)N1CCC(c2cc(-c3ccc(NC(=O)c4cccn(-c5ccc(F)cc5)c4=O)cc3F)c3c(N)ncnn23)CC1` (0.5 µM): the “number of time points” value was 0.
Still for that read-out and setting: for `O[C@@H]1CO[C@H]2[C@@H]1OC[C@H]2Oc1nc2nc(-c3ccc(-c4ccccc4)cc3)c(Cl)cc2[nH]1` (10 µM) the value was 0.

The target in a further experiment is RIPK2 (UniProt O43353). The experiment is described as above. The conditions noted are these: K562; 2-18 h.
As to `C[C@@H]1COCCN1c1nc(-c2cnc(N)cc2C(F)F)nc(N2[C@H](C)COC[C@@H]2C)n1` (2.5 µM), the “number of time points” value turned out to be 0.
For the compound `O=C(O)c1cc(=O)c2c(OCC(O)COc3cccc4oc(C(=O)O)cc(=O)c34)cccc2o1` [Cromolyn (sodium)] (10 µM), the “number of time points” value was found to be 0.
As for `CCc1ccc(OCC(=O)Nc2ccc(F)c([N+](=O)[O-])c2)cc1` (10 µM), the “number of time points” value came to 0.
On to `CC(C)S(=O)(=O)c1ccc2nccc(Nc3ccc4scnc4c3)c2c1` (10 µM), for which the “number of time points” value was determined as 4.
For `CN1CC[C@@H](c2c(O)cc(O)c3c(=O)cc(-c4ccc(C(F)(F)F)cc4Cl)oc23)[C@@H]1CO` [Voruciclib (hydrochloride)] (10 µM), the “number of time points” value amounted to 0.
Still for that read-out and setting: for `CC(C)=CC(=O)O[C@H]1Cc2cc3ccc(=O)oc3cc2OC1(C)C` [Decursin] (10 µM) the value was 0; for `CC(C)C[C@@H](C(=O)Nc1ccn(C[C@@H](O)CO)n1)N1CC(Oc2ccccc2Cl)=CC1=O` [Dorzagliatin] (10 µM), 0; for `CC(C)N1CCN(c2ccc(Nc3ncc4cc5n(c4n3)C3(CCCCC3)CNC5=O)nc2)CC1` [Lerociclib (dihydrochloride)] (2 µM), 0.
`CCCCCCCCCCCCCCCCOP(=O)([O-])OCC[N+](C)(C)C` [Miltefosine] (10 µM): the “number of time points” value came to 0.
On to `COCCNc1cc(NC(=O)N2CCCc3cc(CN4CCN(C)CC4=O)c(C=O)nc32)ncc1C#N` [Roblitinib] (10 µM), for which the “number of time points” value is 0.
In the case of `Cc1ccc(NC(=O)c2ccc(CN(CCN(C)C)C(=O)c3cccnc3)cc2)cc1Nc1nccc(-c2cccnc2)n1` [PDGFRα kinase inhibitor 1] (10 µM), the “number of time points” value was found to be 0.
For the compound `c1ccc(-c2nc(=NCCN3CCOCC3)sn2-c2ccccc2)cc1` [VP3.15 (dihydrobromide)] (10 µM), the “number of time points” value was found to be 0.
For `O=C1NC(=Nc2c(Cl)cccc2Cl)S/C1=C\c1ccc2nccnc2c1` (2.5 µM), the “number of time points” value amounted to 0.
Turning to `Cc1cc(-c2ccnc(Nc3cnn(C)c3)n2)ccc1CNC(=O)N1CC(OC(C)C)C1` (10 µM), the “number of time points” value is 0.
The same measure, in the same setting: the same measure for `CN(C)S(=O)(=O)c1ccc2c(c1)/C(=C/c1cc3c([nH]1)CCCC3)C(=O)N2` (2.5 µM): 0.
In the case of `Cc1cnc(NC2CCOCC2)nc1-n1cnc(C(=O)N[C@H](CN)c2cc(F)cc(Cl)c2)c1` (10 µM), the “number of time points” value came to 0.
Consider `N#CC(c1ccnc(OCc2ccc(CN3CCOCC3)cc2)n1)c1nc2ccccc2s1` (stereo not drawn) [Bentamapimod] (2.5 µM), for which the “number of time points” value is 0.
In the case of `Cc1c(-c2ccc(C(N)=O)c3[nH]c4cc(C(C)(C)O)ccc4c23)cccc1-n1cnc2ccccc2c1=O` (2.5 µM), the “number of time points” value was determined as 0.
Turning to `CN(C)c1nc2c(Br)c(Br)c(Br)c(Br)c2[nH]1` (10 µM), the “number of time points” value worked out at 0.
Regarding `Nc1ncnc2c1c(-c1ccc(Oc3ccccc3)cc1)nn2C1CCN(CCOCCOCCOc2ccc3c(c2)CN(C2CCC(=O)NC2=O)C3=O)CC1` (stereo not drawn) (2.5 µM), the “number of time points” value is 0.
In the case of `O=[N+]([O-])c1ccc(Nc2nc(N3CCOCC3)nc(N3CCOCC3)n2)cc1` (10 µM), the “number of time points” value was determined as 0.
The same measure, in the same setting: the same measure for `C[C@H](Nc1ncnc2[nH]cnc12)c1cc2ccc(F)cc2nc1-c1ccccn1` (10 µM): 0; for `CCc1cccc(CC)c1NC(=O)N1Cc2[nH]nc(NC(=O)c3ccc(N4CCN(C)CC4)cc3)c2C1` (2.5 µM): 3; for `CCc1cncnc1N1CCN(Cc2nc3ccc(C(F)(F)F)cc3[nH]2)CC1` (10 µM): 0.
On the same count and under the same terms, the same measure for `COc1cc(-c2cn[nH]c2)ccc1C(=O)Nc1ccc2c(c1)CCNCC2` (10 µM): 0; for `Cn1cc2cc(C(F)(F)c3nnc4ccc(-c5cnn(C6CC6)c5)nn34)c(F)cc2n1` [Bozitinib] (10 µM): 0; for `O=Nc1c2[nH]c3ccccc3nc-2c2ccccc12` [IQ-1S (free acid)] (2.5 µM): 0.
As to `CCN(CC)c1cc2oc(=O)c(-c3nc4ccccc4o3)cc2cc1C` (2.5 µM), the “number of time points” value came to 0.

The record behind these values is the supplement of paper PMC12823440, “Inhibitors supercharge kinase turnover through native proteolytic circuits” (Nature, 2025).
